The supplement of paper PMC8728848
The other results are listed elsewhere or left out.

Experiments:
Experiment in all cases: glycan array binding signal (z-score within array); higher = stronger binding
Settings in all cases: glycan notation: IUPAC condensed, linker removed
[1] = target: Gal(b1-4)GalNAc(b1-3)[Fuc(a1-2)]Gal(b1-4)GlcNAc
Method in brief: (§1)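 Negative Z-scores can be read as non-binding. The Z-score is calculated within each array and then averaged across arrays of one protein sequence at different concentrations or buffers and across linkers. Arrays, 3228 in all, were curated from the Consortium for Functional Glycomics database and kept only where the protein sequence was available.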

Gal(b1-4)Glc = target: Gal(b1-4)Glc
Method in brief: as §1

Gal(b1-4)Glc6S = target: Gal(b1-4)Glc6S
Method in brief: as §1

Gal(b1-4)GlcNAc = target: Gal(b1-4)GlcNAc
Method in brief: as §1

[2] = target: Gal(b1-4)GlcNAc(a1-6)Gal(b1-4)GlcNAc
Method in brief: as §1

Gal(b1-4)GlcNAc(b1-2)Man = target: Gal(b1-4)GlcNAc(b1-2)Man
Method in brief: as §1

[3] = target: Gal(b1-4)GlcNAc(b1-2)Man(a1-3)Man(b1-4)GlcNAc(b1-4)GlcNAc
Method in brief: as §1

[4] = target: Gal(b1-4)GlcNAc(b1-2)Man(a1-3)[Gal(b1-4)GlcNAc(b1-2)Man(a1-6)]Man(b1-4)GlcNAc(b1-4)GlcNAc
Method in brief: as §1

[5] = target: Gal(b1-4)GlcNAc(b1-2)Man(a1-3)[Gal(b1-4)GlcNAc(b1-2)Man(a1-6)]Man(b1-4)GlcNAc(b1-4)[Fuc(a1-6)]GlcNAc
Method in brief: as §1

[6] = target: Gal(b1-4)GlcNAc(b1-2)Man(a1-3)[Gal(b1-4)GlcNAc(b1-2)Man(a1-6)][Gal(b1-4)GlcNAc(b1-4)]Man(b1-4)GlcNAc(b1-4)[Fuc(a1-6)]GlcNAc
Method in brief: as §1

[7] = target: Gal(b1-4)GlcNAc(b1-2)Man(a1-3)[Gal(b1-4)GlcNAc(b1-2)Man(a1-6)][GlcNAc(b1-4)]Man(b1-4)GlcNAc(b1-4)[Fuc(a1-6)]GlcNAc
Method in brief: as §1

[8] = target: Gal(b1-4)GlcNAc(b1-2)Man(a1-3)[GlcNAc(b1-2)Man(a1-6)]Man(b1-4)GlcNAc(b1-4)GlcNAc
Method in brief: as §1

[9] = target: Gal(b1-4)GlcNAc(b1-2)Man(a1-3)[GlcNAc(b1-4)][Gal(b1-4)GlcNAc(b1-2)Man(a1-6)]Man(b1-4)GlcNAc(b1-4)GlcNAc
Method in brief: as §1

[10] = target: Gal(b1-4)GlcNAc(b1-2)Man(a1-3)[Man(a1-6)]Man(b1-4)GlcNAc(b1-4)GlcNAc
Method in brief: as §1

[11] = target: Gal(b1-4)GlcNAc(b1-2)Man(a1-6)Man(b1-4)GlcNAc(b1-4)GlcNAc
Method in brief: as §1

[12] = target: Gal(b1-4)GlcNAc(b1-2)Man(a1-6)[GlcNAc(b1-2)Man(a1-3)]Man(b1-4)GlcNAc(b1-4)GlcNAc
Method in brief: as §1

[13] = target: Gal(b1-4)GlcNAc(b1-2)Man(a1-6)[Man(a1-3)]Man(b1-4)GlcNAc(b1-4)GlcNAc
Method in brief: as §1

[14] = target: Gal(b1-4)GlcNAc(b1-2)[Gal(b1-4)GlcNAc(b1-4)]Man(a1-3)[Gal(b1-4)GlcNAc(b1-2)Man(a1-6)]Man(b1-4)GlcNAc(b1-4)GlcNAc
Method in brief: as §1

[15] = target: Gal(b1-4)GlcNAc(b1-2)[Gal(b1-4)GlcNAc(b1-4)]Man(a1-3)[Gal(b1-4)GlcNAc(b1-2)[Gal(b1-4)GlcNAc(b1-6)]Man(a1-6)]Man(b1-4)GlcNAc(b1-4)GlcNAc
Method in brief: as §1

[16] = target: Gal(b1-4)GlcNAc(b1-2)[Gal(b1-4)GlcNAc(b1-4)]Man(a1-3)[GlcNAc(b1-4)][Gal(b1-4)GlcNAc(b1-2)Man(a1-6)]Man(b1-4)GlcNAc(b1-4)GlcNAc
Method in brief: as §1

[17] = target: Gal(b1-4)GlcNAc(b1-2)[Gal(b1-4)GlcNAc(b1-4)]Man(a1-3)[GlcNAc(b1-4)][Gal(b1-4)GlcNAc(b1-2)[Gal(b1-4)GlcNAc(b1-6)]Man(a1-6)]Man(b1-4)GlcNAc(b1-4)GlcNAc
Method in brief: as §1

[18] = target: Gal(b1-4)GlcNAc(b1-2)[Gal(b1-4)GlcNAc(b1-6)]Man(a1-6)[Gal(b1-4)GlcNAc(b1-2)Man(a1-3)]Man(b1-4)GlcNAc(b1-4)GlcNAc
Method in brief: as §1

[19] = target: Gal(b1-4)GlcNAc(b1-2)[Gal(b1-4)GlcNAc(b1-6)]Man(a1-6)[Gal(b1-4)GlcNAc(b1-2)Man(a1-3)]Man(b1-4)GlcNAc(b1-4)[Fuc(a1-6)]GlcNAc
Method in brief: as §1

[20] = target: Gal(b1-4)GlcNAc(b1-2)[Gal(b1-4)GlcNAc(b1-6)]Man(a1-6)[GlcNAc(b1-4)][Gal(b1-4)GlcNAc(b1-2)Man(a1-3)]Man(b1-4)GlcNAc(b1-4)GlcNAc
Method in brief: as §1

[21] = target: Gal(b1-4)GlcNAc(b1-2)[Gal(b1-4)GlcNAc(b1-6)]Man(a1-6)[GlcNAc(b1-4)][Gal(b1-4)GlcNAc(b1-2)[Gal(b1-4)GlcNAc(b1-4)]Man(a1-3)]Man(b1-4)GlcNAc(b1-4)[Fuc(a1-6)]GlcNAc
Method in brief: as §1

[22] = target: Gal(b1-4)GlcNAc(b1-3)Gal(b1-3)GalNAc
Method in brief: as §1

[23] = target: Gal(b1-4)GlcNAc(b1-3)Gal(b1-3)GlcNAc
Method in brief: as §1

[24] = target: Gal(b1-4)GlcNAc(b1-3)Gal(b1-4)Glc
Method in brief: as §1

[25] = target: Gal(b1-4)GlcNAc(b1-3)Gal(b1-4)GlcNAc
Method in brief: as §1

[26] = target: Gal(b1-4)GlcNAc(b1-3)Gal(b1-4)GlcNAc(b1-2)Man(a1-3)[Gal(b1-4)GlcNAc(b1-3)Gal(b1-4)GlcNAc(b1-2)Man(a1-6)]Man(b1-4)GlcNAc(b1-4)GlcNAc
Method in brief: as §1

B1: CcfD (Bacteroides vulgatus), A6KYX8 (protein)
chain: MKYKNYFKSIIYLALGAFTLGSCEDFLDRQEDEKLTFDKIWESRNTTQQYWLNAMSFLPNENGSLQGDTEPYLGASDECTIAYDRQYRWINFGTWNPSQVPYYKMDHYYKGIRECNIFLQNVYKCSDPLVTKDQLDEWYWQTRFARAYYYFLMMRDYGPVFLLGDDLLDFTASTEELYRPRNTWDQCVNYVVSEMTQCAESGVVLQQSDLPAAKWGLATVGTCHAVISRLLLYSARPLFNGNKLYSTVKNPDAPDFPELSGVKLFPELDNTKWQKAAEAAKKLIDNPCYELYRAGNDNPYEDYYGVTHETWNKELIWTDRYNGLFSWGVGTVPTGVAGTAYGAVGPTQALVDAYAMNTGWYPITGYEADGTPIVEPLSGYELASELEKSSWIYPSGGWSNKADFEIEAPNMYKDREPRFYVTVFFGGNQWLHGNSATSISFAKGGNGNKSHDYPKSGYLCNRFYDHKLNSSEGQWGNITFPVFRLGEIYLNFIEAVLECKKNGVALDPSYEALAMEKWADLRKRAGLDPITSIYGQVSTEELIQLCRKERQIELAFERHRYFDTRTWMIATQTDNGKMYGMNTSCPLDAGMKGTETPDGFWERTAFETRVFQNKHYLYPFSQRELDRNKLLTQNYGW
In the case of B1, the “glycan array binding signal (z-score)” value [1] is reported as -0.749, the “glycan array binding signal (z-score)” value (Gal(b1-4)Glc) is reported as -0.536 and the “glycan array binding signal (z-score)” value (Gal(b1-4)Glc6S) is reported as -0.345. The “glycan array binding signal (z-score)” value (Gal(b1-4)GlcNAc) was -0.361, the “glycan array binding signal (z-score)” value [2] was -0.876 and the “glycan array binding signal (z-score)” value (Gal(b1-4)GlcNAc(b1-2)Man) was 0.318. For the same binder, the “glycan array binding signal (z-score)” value [3] was 3, the “glycan array binding signal (z-score)” value [4] was -0.805 and the “glycan array binding signal (z-score)” value [5] was 1.01. For the same binder, the “glycan array binding signal (z-score)” value [6] was 0.531, the “glycan array binding signal (z-score)” value [7] was -0.983 and the “glycan array binding signal (z-score)” value [8] was -0.962. The “glycan array binding signal (z-score)” value [9] was -0.597, the “glycan array binding signal (z-score)” value [10] was -0.774 and the “glycan array binding signal (z-score)” value [11] was 0.018. For the same binder, the “glycan array binding signal (z-score)” value [12] was 0.348, the “glycan array binding signal (z-score)” value [13] was -0.49 and the “glycan array binding signal (z-score)” value [14] was -0.348. For the same binder, the “glycan array binding signal (z-score)” value [15] was -0.221, the “glycan array binding signal (z-score)” value [16] was -0.297 and the “glycan array binding signal (z-score)” value [17] was -0.683. The “glycan array binding signal (z-score)” value [18] was 0.003, the “glycan array binding signal (z-score)” value [19] was -0.937 and the “glycan array binding signal (z-score)” value [20] was -0.231. For the same binder, the “glycan array binding signal (z-score)” value [21] was -0.815, the “glycan array binding signal (z-score)” value [22] was -0.673 and the “glycan array binding signal (z-score)” value [23] was -0.932. The “glycan array binding signal (z-score)” value [24] was -0.071, the “glycan array binding signal (z-score)” value [25] was -0.393 and the “glycan array binding signal (z-score)” value [26] was 0.087.
